# The supplement of paper PMC8728848
# The other results are listed elsewhere or left out.
# B1: LlpA (Arthrobacter sp) (protein)
# chain: MGSSHHHHHHSSGLVPRGSHMTLHPETALRPGAAATSPNSRYRLLYQTDGNLVLYGPDGPLWDSGTNGHGAGACIMQADGNLVLYGPNDEYVWDTETDNNPGSRLVIQDDGNAVIYRPDGSPLWATETCQPPGSADSHVLQSGSTLTPTHGIRSANGLYGLLYQTDGNLVFYGPDGPLWDSGTNGRGAGACIMQPDGNLVLYGPHDEYVWDTETDNNPGSRLVIQDDGNAVIYRPDGNPTWVTGTH
# Experiments:
# Assay in all cases: glycan array binding signal (z-score within array); higher = stronger binding
# Conditions in all cases: glycan notation: IUPAC condensed, linker removed
# Neu5Ac(a2-6)Gal = molecular target: Neu5Ac(a2-6)Gal
# Method in brief: (§1)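 Glycan array binding is given as a within-array Z-score, which can be read as non-binding when negative. The arrays, 3228 of them, came from the Consortium for Functional Glycomics database and were retained only where the protein sequence was available. Z-scores were averaged across arrays of the same protein sequence at different concentrations or buffers and across linkers.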
# [1] = molecular target: Neu5Ac(a2-6)Gal(b1-3)GlcNAc(b1-3)[Gal(b1-4)GlcNAc(b1-6)]Gal(b1-4)Glc
# Method in brief: as §1
# Neu5Ac(a2-6)Gal(b1-4)Glc = molecular target: Neu5Ac(a2-6)Gal(b1-4)Glc
# Method in brief: as §1
# [2] = molecular target: Neu5Ac(a2-6)Gal(b1-4)GlcNAc
# Method in brief: as §1
# [3] = molecular target: Neu5Ac(a2-6)Gal(b1-4)GlcNAc(b1-2)Man
# Method in brief: as §1
# [4] = molecular target: Neu5Ac(a2-6)Gal(b1-4)GlcNAc(b1-2)Man(a1-3)Man(b1-4)GlcNAc(b1-4)GlcNAc
# Method in brief: as §1
# [5] = molecular target: Neu5Ac(a2-6)Gal(b1-4)GlcNAc(b1-2)Man(a1-3)[Gal(b1-4)GlcNAc(b1-2)Man(a1-6)]Man(b1-4)GlcNAc(b1-4)GlcNAc
# Method in brief: as §1
# [6] = molecular target: Neu5Ac(a2-6)Gal(b1-4)GlcNAc(b1-2)Man(a1-3)[GlcNAc(b1-2)Man(a1-6)]Man(b1-4)GlcNAc(b1-4)GlcNAc
# Method in brief: as §1
# [7] = molecular target: Neu5Ac(a2-6)Gal(b1-4)GlcNAc(b1-2)Man(a1-3)[GlcNAc(b1-4)][Neu5Ac(a2-6)Gal(b1-4)GlcNAc(b1-2)Man(a1-6)]Man(b1-4)GlcNAc(b1-4)GlcNAc
# Method in brief: as §1
# [8] = molecular target: Neu5Ac(a2-6)Gal(b1-4)GlcNAc(b1-2)Man(a1-3)[Man(a1-6)]Man(b1-4)GlcNAc(b1-4)GlcNAc
# Method in brief: as §1
# [9] = molecular target: Neu5Ac(a2-6)Gal(b1-4)GlcNAc(b1-2)Man(a1-3)[Neu5Ac(a2-3)Gal(b1-4)GlcNAc(b1-2)Man(a1-6)]Man(b1-4)GlcNAc(b1-4)GlcNAc
# Method in brief: as §1
# [10] = molecular target: Neu5Ac(a2-6)Gal(b1-4)GlcNAc(b1-2)Man(a1-3)[Neu5Ac(a2-6)Gal(b1-4)GlcNAc(b1-2)Man(a1-6)]Man(b1-4)GlcNAc(b1-4)GlcNAc
# Method in brief: as §1
# [11] = molecular target: Neu5Ac(a2-6)Gal(b1-4)GlcNAc(b1-2)Man(a1-3)[Neu5Ac(a2-6)Gal(b1-4)GlcNAc(b1-2)Man(a1-6)]Man(b1-4)GlcNAc(b1-4)[Fuc(a1-6)]GlcNAc
# Method in brief: as §1
# [12] = molecular target: Neu5Ac(a2-6)Gal(b1-4)GlcNAc(b1-2)Man(a1-6)Man(b1-4)GlcNAc(b1-4)GlcNAc
# Method in brief: as §1
# [13] = molecular target: Neu5Ac(a2-6)Gal(b1-4)GlcNAc(b1-2)Man(a1-6)[Gal(b1-4)GlcNAc(b1-2)Man(a1-3)]Man(b1-4)GlcNAc(b1-4)GlcNAc
# Method in brief: as §1
# [14] = molecular target: Neu5Ac(a2-6)Gal(b1-4)GlcNAc(b1-2)Man(a1-6)[GlcNAc(b1-2)Man(a1-3)]Man(b1-4)GlcNAc(b1-4)GlcNAc
# Method in brief: as §1
# [15] = molecular target: Neu5Ac(a2-6)Gal(b1-4)GlcNAc(b1-2)Man(a1-6)[Man(a1-3)]Man(b1-4)GlcNAc(b1-4)GlcNAc
# Method in brief: as §1
# [16] = molecular target: Neu5Ac(a2-6)Gal(b1-4)GlcNAc(b1-2)[Neu5Ac(a2-6)Gal(b1-4)GlcNAc(b1-4)]Man(a1-3)[GlcNAc(b1-4)][Neu5Ac(a2-6)Gal(b1-4)GlcNAc(b1-2)[Neu5Ac(a2-6)Gal(b1-4)GlcNAc(b1-6)]Man(a1-6)]Man(b1-4)GlcNAc(b1-4)GlcNAc
# Method in brief: as §1
# [17] = molecular target: Neu5Ac(a2-6)Gal(b1-4)GlcNAc(b1-2)[Neu5Ac(a2-6)Gal(b1-4)GlcNAc(b1-4)]Man(a1-3)[GlcNAc(b1-4)][Neu5Ac(a2-6)Gal(b1-4)GlcNAc(b1-4)Man(a1-6)]Man(b1-4)GlcNAc(b1-4)GlcNAc
# Method in brief: as §1
# [18] = molecular target: Neu5Ac(a2-6)Gal(b1-4)GlcNAc(b1-2)[Neu5Ac(a2-6)Gal(b1-4)GlcNAc(b1-6)]Man(a1-6)[Neu5Ac(a2-6)Gal(b1-4)GlcNAc(b1-2)Man(a1-3)][GlcNAc(b1-4)]Man(b1-4)GlcNAc(b1-4)GlcNAc
# Method in brief: as §1
# [19] = molecular target: Neu5Ac(a2-6)Gal(b1-4)GlcNAc(b1-3)Gal(b1-3)GlcNAc
# Method in brief: as §1
# [20] = molecular target: Neu5Ac(a2-6)Gal(b1-4)GlcNAc(b1-3)Gal(b1-4)GlcNAc
# Method in brief: as §1
# [21] = molecular target: Neu5Ac(a2-6)Gal(b1-4)GlcNAc(b1-3)Gal(b1-4)GlcNAc(b1-2)Man(a1-3)[Neu5Ac(a2-6)Gal(b1-4)GlcNAc(b1-3)Gal(b1-4)GlcNAc(b1-2)Man(a1-6)]GalNAc
# Method in brief: as §1
# [22] = molecular target: Neu5Ac(a2-6)Gal(b1-4)GlcNAc(b1-3)Gal(b1-4)GlcNAc(b1-3)Gal(b1-4)GlcNAc
# Method in brief: as §1
# [23] = molecular target: Neu5Ac(a2-6)Gal(b1-4)GlcNAc(b1-3)Gal(b1-4)GlcNAc(b1-3)Gal(b1-4)GlcNAc(b1-2)Man(a1-3)[Neu5Ac(a2-6)Gal(b1-4)GlcNAc(b1-3)Gal(b1-4)GlcNAc(b1-3)Gal(b1-4)GlcNAc(b1-2)Man(a1-6)]GalNAc
# Method in brief: as §1
# [24] = molecular target: Neu5Ac(a2-6)Gal(b1-4)GlcNAc(b1-3)Gal(b1-4)GlcNAc(b1-3)GalNAc
# Method in brief: as §1
# [25] = molecular target: Neu5Ac(a2-6)Gal(b1-4)GlcNAc(b1-3)Gal(b1-4)GlcNAc(b1-3)[Neu5Ac(a2-6)Gal(b1-4)GlcNAc(b1-3)Gal(b1-4)GlcNAc(b1-6)]GalNAc
# Method in brief: as §1
# [26] = molecular target: Neu5Ac(a2-6)Gal(b1-4)GlcNAc(b1-3)Gal(b1-4)GlcNAc(b1-6)[Gal(b1-3)]GalNAc
# Method in brief: as §1
# [27] = molecular target: Neu5Ac(a2-6)Gal(b1-4)GlcNAc(b1-3)Gal(b1-4)[Fuc(a1-3)]GlcNAc(b1-3)Gal(b1-4)[Fuc(a1-3)]GlcNAc
# Method in brief: as §1
# [28] = molecular target: Neu5Ac(a2-6)Gal(b1-4)GlcNAc(b1-3)GalNAc
# Method in brief: as §1
# [29] = molecular target: Neu5Ac(a2-6)Gal(b1-4)GlcNAc(b1-3)[Neu5Ac(a2-6)Gal(b1-4)GlcNAc(b1-6)]GalNAc
# Method in brief: as §1
# [30] = molecular target: Neu5Ac(a2-6)Gal(b1-4)GlcNAc(b1-6)GalNAc
# Method in brief: as §1
# [31] = molecular target: Neu5Ac(a2-6)Gal(b1-4)GlcNAc(b1-6)[Gal(b1-3)GlcNAc(b1-3)]Gal(b1-4)Glc
# Method in brief: as §1
# [32] = molecular target: Neu5Ac(a2-6)Gal(b1-4)GlcNAc(b1-6)[Gal(b1-3)]GalNAc
# Method in brief: as §1
# [33] = molecular target: Neu5Ac(a2-6)Gal(b1-4)GlcNAc6S
# Method in brief: as §1
# Neu5Ac(a2-6)GalNAc = molecular target: Neu5Ac(a2-6)GalNAc
# Method in brief: as §1
# [34] = molecular target: Neu5Ac(a2-6)GalNAc(b1-4)GlcNAc
# Method in brief: as §1
# [35] = molecular target: Neu5Ac(a2-6)GalNAc(b1-4)GlcNAc6S
# Method in brief: as §1
binder,measurement,setting,value
B1,glycan array binding signal (z-score),Neu5Ac(a2-6)Gal,0.531
same,glycan array binding signal (z-score),[1],-0.829
same,glycan array binding signal (z-score),Neu5Ac(a2-6)Gal(b1-4)Glc,-0.132
same,glycan array binding signal (z-score),[2],-0.983
same,glycan array binding signal (z-score),[3],-0.123
same,glycan array binding signal (z-score),[4],0.796
same,glycan array binding signal (z-score),[5],-0.376
same,glycan array binding signal (z-score),[6],0.56
same,glycan array binding signal (z-score),[7],0.531
same,glycan array binding signal (z-score),[8],1.21
same,glycan array binding signal (z-score),[9],-0.207
same,glycan array binding signal (z-score),[10],0.224
same,glycan array binding signal (z-score),[11],2.31
same,glycan array binding signal (z-score),[12],0.4
same,glycan array binding signal (z-score),[13],-0.868
same,glycan array binding signal (z-score),[14],0.209
same,glycan array binding signal (z-score),[15],0.502
same,glycan array binding signal (z-score),[16],-0.712
same,glycan array binding signal (z-score),[17],-0.394
same,glycan array binding signal (z-score),[18],-0.017
same,glycan array binding signal (z-score),[19],-0.33
same,glycan array binding signal (z-score),[20],-1.17
same,glycan array binding signal (z-score),[21],-0.464
same,glycan array binding signal (z-score),[22],0.262
same,glycan array binding signal (z-score),[23],2.47
same,glycan array binding signal (z-score),[24],0.214
same,glycan array binding signal (z-score),[25],0.568
same,glycan array binding signal (z-score),[26],-0.279
same,glycan array binding signal (z-score),[27],0.982
same,glycan array binding signal (z-score),[28],-0.34
same,glycan array binding signal (z-score),[29],0.482
same,glycan array binding signal (z-score),[30],-0.174
same,glycan array binding signal (z-score),[31],-0.86
same,glycan array binding signal (z-score),[32],-0.378
same,glycan array binding signal (z-score),[33],-0.463
same,glycan array binding signal (z-score),Neu5Ac(a2-6)GalNAc,-1.44
same,glycan array binding signal (z-score),[34],-1.55
same,glycan array binding signal (z-score),[35],-0.585

# An excerpt of these results, with bars between the fields.
binder | measurement | setting | value
B1 | glycan array binding signal (z-score) | [12] | 0.4
same | glycan array binding signal (z-score) | [24] | 0.214
